Assay results: paper PMC4585976
These are yes or no findings as the source states them, for the method shown. In cells and extracts the contact can be indirect. A yes stands for co-enrichment or nearness to the bait. Other partners may have been found. Sequences can lack the tags named with a protein.

Molecular target: T1, FLAG-haemagglutinin (HA) epitope-tagged ARIP4 (ARIP4-FH) (human) (UniProt Q9Y4B4)
T1 sequence: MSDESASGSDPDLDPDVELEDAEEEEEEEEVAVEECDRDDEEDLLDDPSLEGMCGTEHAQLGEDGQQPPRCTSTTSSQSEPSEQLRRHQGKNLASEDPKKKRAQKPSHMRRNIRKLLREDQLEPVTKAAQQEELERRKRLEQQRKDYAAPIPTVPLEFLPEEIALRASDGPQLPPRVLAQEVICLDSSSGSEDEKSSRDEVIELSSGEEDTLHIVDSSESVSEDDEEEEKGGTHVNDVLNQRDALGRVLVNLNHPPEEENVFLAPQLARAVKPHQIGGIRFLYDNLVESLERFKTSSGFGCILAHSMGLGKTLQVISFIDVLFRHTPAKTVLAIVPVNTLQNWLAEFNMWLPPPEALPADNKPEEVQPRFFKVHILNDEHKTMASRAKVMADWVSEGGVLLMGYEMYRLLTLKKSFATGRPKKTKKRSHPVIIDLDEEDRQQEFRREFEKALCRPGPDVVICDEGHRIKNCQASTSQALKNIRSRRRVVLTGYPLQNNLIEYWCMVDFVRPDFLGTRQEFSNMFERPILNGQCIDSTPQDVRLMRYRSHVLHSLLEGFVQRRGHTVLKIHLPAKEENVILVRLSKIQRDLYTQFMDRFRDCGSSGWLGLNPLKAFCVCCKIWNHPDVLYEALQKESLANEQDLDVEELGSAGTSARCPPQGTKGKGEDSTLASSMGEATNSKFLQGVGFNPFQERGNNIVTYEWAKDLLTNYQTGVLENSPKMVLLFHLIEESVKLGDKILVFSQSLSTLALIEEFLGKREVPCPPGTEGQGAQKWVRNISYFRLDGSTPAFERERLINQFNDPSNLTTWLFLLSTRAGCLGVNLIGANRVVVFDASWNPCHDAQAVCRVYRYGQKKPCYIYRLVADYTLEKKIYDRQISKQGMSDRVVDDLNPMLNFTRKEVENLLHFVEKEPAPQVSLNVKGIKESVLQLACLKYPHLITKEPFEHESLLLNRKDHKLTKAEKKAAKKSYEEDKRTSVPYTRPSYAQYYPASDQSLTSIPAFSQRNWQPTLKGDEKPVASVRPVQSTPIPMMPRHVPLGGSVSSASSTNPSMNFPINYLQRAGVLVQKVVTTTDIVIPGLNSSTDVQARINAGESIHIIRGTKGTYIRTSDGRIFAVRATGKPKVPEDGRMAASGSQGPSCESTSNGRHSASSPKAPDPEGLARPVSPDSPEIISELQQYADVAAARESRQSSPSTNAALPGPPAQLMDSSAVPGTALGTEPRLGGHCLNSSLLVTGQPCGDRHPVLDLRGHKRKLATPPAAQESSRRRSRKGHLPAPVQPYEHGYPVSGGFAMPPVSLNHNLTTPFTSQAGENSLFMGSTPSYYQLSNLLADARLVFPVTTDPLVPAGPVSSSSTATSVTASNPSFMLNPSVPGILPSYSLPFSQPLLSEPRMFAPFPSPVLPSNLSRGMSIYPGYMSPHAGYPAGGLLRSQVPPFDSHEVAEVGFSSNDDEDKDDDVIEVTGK
Assay: affinity purification with mass spectrometry; nuclear extracts of HeLa cells stably expressing ARIP4-FH; anti-FLAG agarose, elution with 3x FLAG peptide, then anti-HA (12CA5) agarose; silver staining, bands identified by MALDI-TOF MS; mock purification from cells without exogenous protein as …

B1: HAN11 (also known as WDR68) (protein, UniProt P61962 1-342)
chain: MSLHGKRKEIYKYEAPWTVYAMNWSVRPDKRFRLALGSFVEEYNNKVQLVGLDEESSEFICRNTFDHPYPTTKLMWIPDTKGVYPDLLATSGDYLRVWRVGETETRLECLLNNNKNSDFCAPLTSFDWNEVDPYLLGTSSIDTTCTIWGLETGQVLGRVNLVSGHVKTQLIAHDKEVYDIAFSRAGGGRDMFASVGADGSVRMFDLRHLEHSTIIYEDPQHHPLLRLCWNKQDPNYLATMAMDGMEVVILDVRVPCTPVARLNNHRACVNGIAWAPHSSCHICTAADDHQALIWDIQQMPRAIEDPILAYTAEGEINNVQWASTQPDWIAICYNNCLEILRV
  binding: binds
